# In US20230035479A1, “METHODS AND COMPOSITIONS FOR REDUCING HAIR GREYING” (President and Fellows of Harvard College, priority 2019, published 2023):
# Tested on: C57BL/6J mice
# Conditions: mouse, in vivo
smiles,measurement,value
N=C(N)NCCN1CCCCCCC1 [guanethidine],effect on hair greying upon RTX injection,suppressed hair greying
